Data as given in PubChem BioAssay (NCATS).
This list was built around the results that the source calls inconclusive (neither active nor inactive); the mix of calls is not that of the screen. For some assays here: Potencies of inconclusive entries are doubtful fits and often do not repeat. Calls of active or inactive are those of the source. Calls come from the whole dose curve; as a rule, active = well fitted curve in the direction sought with a large enough effect; inconclusive = small, poorly fitted or top-dose-only effect, or another doubt; inactive = no such curve, though single readings can be large; an effect the other way counts as inactive or inconclusive.

How the values were obtained:
[1] = Quantitative High-Throughput drug screen in 47 multiple myeloma cell lines against the NCATS MIPE library collection: KMS20_JCRB cell viability assay (AID 1918973); details: CellTiter-Glo ATP, 48 h; viability (% of DMSO): at 45.8 µM (top of the series); note: nearly all actives have a fitted effect of over 45% in size; note: potency is the fitted concentration of half-maximal effect
Summary of the method: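 Myeloma cells (500 per well) were exposed to MIPE 4.0 compounds by pin transfer and incubated 48 hours at 37C, 5% CO2. Viability was read as ATP by CellTiter-Glo luminescence, normalised to DMSO (100%) and media-only (0%) wells.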

[2] = Quantitative High-Throughput drug screen in 47 multiple myeloma cell lines against the NCATS MIPE library collection: KMS26_JCRB cell viability assay (AID 1918975); details: KMS26 myeloma cells viability, CellTiter-Glo ATP, 48 h; viability (% of DMSO): at 45.8 µM (top of the series); note: nearly all actives have a fitted effect of over 45% in size; note: potency is the fitted concentration of half-maximal effect
Summary of the method: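 Myeloma cell lines, 500 cells per well, exposed to MIPE 4.0 library compounds for 48 h at 37C, 5% CO2. Viability from ATP by CellTiter-Glo luminescence; normalised to DMSO (100%) and media-only (0%) wells.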

[3] = Quantitative High-Throughput drug screen in 47 multiple myeloma cell lines against the NCATS MIPE library collection: MMM1_PLB cell viability assay (AID 1918976); note: potency is the fitted concentration of half-maximal effect; nearly all actives have a fitted effect of over 35% in size
Summary of the method: (§1)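 ATP-based luminescence (CellTiter-Glo, 5 min RT incubation) quantified surviving cells following two days' treatment with MIPE 4.0 agents at 37 °C, 5% CO2.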

[4] = Quantitative High-Throughput drug screen in 47 multiple myeloma cell lines against the NCATS MIPE library collection: MOLP8_DSMZ cell viability assay (AID 1918977); details: MOLP8 myeloma viability, CellTiter-Glo ATP luminescence, 48 h; viability (% of control): at 45.8 µM (top of the series); note: nearly all actives have a fitted effect of over 45% in size; note: potency is the fitted concentration of half-maximal effect
Summary of the method: as §1

[5] = Quantitative High-Throughput drug screen in 47 multiple myeloma cell lines against the NCATS MIPE library collection: NCIH929_DSMZ cell viability assay (AID 1918978); note: nearly all actives have a fitted effect of over 35% in size; note: potency is the fitted concentration of half-maximal effect
Summary of the method: as §1

[6] = Quantitative High-Throughput drug screen in 47 multiple myeloma cell lines against the NCATS MIPE library collection: OCIMY1_PLB cell viability assay (AID 1918979); details: OCI-MY1 myeloma viability, CellTiter-Glo ATP, 48 h; viability: at 45.8 µM (top of the series) unless noted; note: nearly all actives have a fitted effect of over 35% in size
Summary of the method: as §1

[7] = Quantitative High-Throughput drug screen in 47 multiple myeloma cell lines against the NCATS MIPE library collection: MM1S_ATCC cell viability assay (AID 1918980); note: nearly all actives have a fitted effect of over 45% in size; note: potency is the fitted concentration of half-maximal effect
Summary of the method: as §1

[8] = Quantitative High-Throughput drug screen in 47 multiple myeloma cell lines against the NCATS MIPE library collection: L363_DSMZ cell viability assay (AID 1918984); details: L363 myeloma viability, CellTiter-Glo ATP luminescence, 48 h; viability (% of control): at 45.8 µM (top of the series); note: nearly all actives have a fitted effect of over 40% in size; note: potency is the fitted concentration of half-maximal effect
Summary of the method: as §1

[9] = Quantitative High-Throughput drug screen in 47 multiple myeloma cell lines against the NCATS MIPE library collection: KMS34_JCRB cell viability assay (AID 1918985); details: KMS34 myeloma viability, CellTiter-Glo ATP luminescence, 48 h; viability, percent of control: at 45.8 µM (top of the series); note: nearly all actives have a fitted effect of over 40% in size
Summary of the method: as §1

[10] = Quantitative High-Throughput drug screen in 47 multiple myeloma cell lines against the NCATS MIPE library collection: OCIMY7_PLB cell viability assay (AID 1918987); details: OCI-MY7 myeloma viability, CellTiter-Glo ATP, 48 h; viability (% of DMSO): at 45.8 µM (top of the series); note: nearly all actives have a fitted effect of over 65% in size; note: potency is the fitted concentration of half-maximal effect
Summary of the method: as §1

[11] = Quantitative High-Throughput drug screen in 47 multiple myeloma cell lines against the NCATS MIPE library collection: OCIMY5_PLB cell viability assay (AID 1918988); details: OCI-MY5 myeloma viability, ATP luminescence, 48 h; viability, % of control: at 45.8 µM (top of the series); note: nearly all actives have a fitted effect of over 65% in size; note: potency is the fitted concentration of half-maximal effect;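 for viability, % of control: 100% = DMSO-treated wells and 0% = wells with media alone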
Summary of the method: as §1

[12] = Quantitative High-Throughput drug screen in 47 multiple myeloma cell lines against the NCATS MIPE library collection: SKMM1_PLB cell viability assay (AID 1919863); details: SKMM1 myeloma viability, CellTiter-Glo ATP, 48 h; viability: active compounds read low; note: nearly all actives have a fitted effect of over 35% in size; note: potency is the fitted concentration of half-maximal effect
Summary of the method: as §1

[13] = Quantitative High-Throughput drug screen in 47 multiple myeloma cell lines against the NCATS MIPE library collection: XG6_PLB cell viability assay (AID 1919865); details: XG6 myeloma viability, CellTiter-Glo ATP luminescence, 48 h; viability (% of control): at 45.8 µM (top of the series); note: potency is the fitted concentration of half-maximal effect; nearly all actives have a fitted effect of over 40% in size
Summary of the method: as §1

[14] = Quantitative High-Throughput drug screen in 47 multiple myeloma cell lines against the NCATS MIPE library collection: XG1_PLB cell viability assay (AID 1919866); details: CellTiter-Glo ATP, 48 h; viability: at 45.8 µM (top of the series)
Summary of the method: as §1

[15] = Quantitative High-Throughput drug screen in 47 multiple myeloma cell lines against the NCATS MIPE library collection: MM1R_ATCC cell viability assay (AID 1918981); note: nearly all actives have a fitted effect of over 35% in size
Summary of the method: as §1

[16] = Quantitative High-Throughput drug screen in 47 multiple myeloma cell lines against the NCATS MIPE library collection: KMS28PE_JCRB cell viability assay (AID 1918983); note: nearly all actives have a fitted effect of over 35% in size; note: potency is the fitted concentration of half-maximal effect
Summary of the method: as §1

[17] = Quantitative High-Throughput drug screen in 47 multiple myeloma cell lines against the NCATS MIPE library collection: OPM1_PLB cell viability assay (AID 1918989); note: nearly all actives have a fitted effect of over 40% in size; note: potency is the fitted concentration of half-maximal effect
Summary of the method: as §1

[18] = Quantitative High-Throughput drug screen in 47 multiple myeloma cell lines against the NCATS MIPE library collection: U266_ATCC cell viability assay (AID 1919864); details: U266 myeloma viability, CellTiter-Glo ATP luminescence, 48 h; viability (% of DMSO control): at 45.8 µM (top of the series)
Summary of the method: as §1

[19] = Quantitative High-Throughput drug screen in 47 multiple myeloma cell lines against the NCATS MIPE library collection: LP1_DSMZ cell viability assay (AID 1918982); details: LP1 myeloma viability, CellTiter-Glo ATP luminescence, 48 h; viability (% of control): at 45.8 µM (top of the series); note: nearly all actives have a fitted effect of over 35% in size; note: potency is the fitted concentration of half-maximal effect
Summary of the method: as §1

CC(C)(C)C(=O)Oc1ccc(S(=O)(=O)Nc2ccccc2C(=O)NCC(=O)O)cc1
inactive: Potency [2] | Potency [6] | Potency [8] | Potency [9] | viability [12] 142%
inconclusive: Potency [1] 0.0017 µM [rising, full curve, poor fit] | Potency [3] 0.0059 µM [rising, full curve] | Potency [4] 9.35 µM [rising, full curve, poor fit] | Potency [5] 26.4 µM [cytotoxic, partial curve] | Potency [7] 33.2 µM [cytotoxic, single point] | Potency [10] 20.9 µM [cytotoxic, partial curve, poor fit] | viability, % of control [11] 101% [cytotoxic] | Potency [13] 20.9 µM [cytotoxic, partial curve] | Potency [14] 18.7 µM [cytotoxic, partial curve]

COc1ccc(-c2cc(=O)c3c(O)cc(O[C@@H]4O[C@H](CO[C@@H]5O[C@@H](C)[C@H](O)[C@@H](O)[C@@H]5O)[C@@H](O)[C@H](O)[C@@H]4O)cc3o2)cc1O
inactive: Potency [4] | Potency [6] | Potency [15] | Potency [16] | Potency [8] | viability [12] 120%
inconclusive: Potency [1] 37.2 µM [cytotoxic, single point] | Potency [3] 0.0083 µM [rising, full curve, poor fit] | Potency [17] 33.2 µM [cytotoxic, single point]
active: Potency [2] 20.9 µM | Potency [5] 9.35 µM | Potency [10] 10.5 µM | Potency [18] 18.7 µM

Clc1cccc(-n2nnnc2NCc2ccccc2Oc2ccccn2)c1Cl
inconclusive: Potency [1] 0.0017 µM [rising, full curve] | Potency [2] 16.6 µM [cytotoxic, partial curve, poor fit] | Potency [3] 18.7 µM [cytotoxic, partial curve, poor fit] | Potency [4] 6.62 µM [cytotoxic, partial curve, poor fit] | Potency [19] 37.2 µM [cytotoxic, single point] | Potency [8] 33.2 µM [cytotoxic, single point] | Potency [10] 0.0019 µM [rising, full curve, poor fit] | Potency [11] 11.8 µM [rising, single point] | Potency [18] 0.0042 µM [rising, full curve, poor fit] | Potency [13] 23.5 µM [cytotoxic, single point] | Potency [14] 33.2 µM [cytotoxic, single point]
inactive: Potency [7] | Potency [16] | Potency [9] | Potency [17] | viability [12] 120%

CN1CCN(c2ncc(-c3cc(Cl)cc(Cl)c3Cl)c(N)n2)CC1
inconclusive: Potency [1] 0.0469 µM [rising, full curve, poor fit] | Potency [3] 0.0148 µM [rising, full curve] | Potency [16] 0.001 µM | Potency [12] 3.32 µM [rising, full curve, poor fit]
active: Potency [5] 23.5 µM | Potency [8] 18.7 µM | Potency [10] 33.2 µM | Potency [18] 26.4 µM | Potency [13] 7.43 µM
inactive: Potency [2] | Potency [4] | Potency [15] | Potency [19]

CN(C)CCc1c[nH]c2ccc(C[C@H]3COC(=O)N3)cc12
inactive: Potency [2] | Potency [6] | Potency [15] | Potency [8] | Potency [9] | Potency [10] | Potency [11] | viability [12] 104%
inconclusive: Potency [1] 0.118 µM [cytotoxic, full curve, poor fit] | Potency [3] 0.0023 µM [rising, full curve] | Potency [4] 14.8 µM [cytotoxic, partial curve, poor fit] | Potency [7] 29.6 µM [cytotoxic, single point] | Potency [16] 0.0166 µM [rising, full curve, poor fit] | Potency [17] 0.0017 µM [rising, full curve, poor fit] | Potency [18] 0.0037 µM [rising, full curve, poor fit]

O=S(=O)(O)CCS
inactive: Potency [1] | Potency [4] | Potency [5] | Potency [7] | Potency [15] | Potency [16] | Potency [10]
inconclusive: Potency [2] 9.35 µM [rising, full curve, poor fit] | Potency [3] 0.0053 µM [rising, full curve] | Potency [8] 26.4 µM [cytotoxic, single point] | Potency [11] 0.0166 µM [rising, full curve, poor fit] | Potency [18] 0.0042 µM [rising, full curve, poor fit]
